Where a sequence shows no end group, the ends are not given.
Assay: general procedure: Boc solid-phase peptide synthesis; lysine PAM-resin
Settings: whole synthesis, scale of the general procedure 100 g of lysine PAM-resin

KLLLLKLLLLKLLLLKLLLLK
final HPLC purity: ≧95%
